Data source: PubChem BioAssay AID743454 (Peter MacCallum Cancer Centre, 2014)
Purpose: 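Search for knock-downs that restore vorinostat killing in resistant colon cancer cells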 (primary screen). System: human HCT116-VR colon cancer cells, selected for vorinostat resistance. Reagent: siRNA pool against human genes, 40 nM siRNA pool. Duration: vorinostat for 24 h, read-out about 72 h after transfection. Conditions: vorinostat at 2.5 µM final. Detection: 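Two measures, CellTiter-Fluor viability and luminescent caspase 3/7 activity, each as fold change against same-plate mock wells, mean of duplicates, then screen-wide robust z-score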. Scale: viability robust z-score: higher = more viable cells than screen typical; caspase robust z-score: higher = more caspase 3/7 activity than screen typical. Hit rule: 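a knock-down is a hit when classed RV1 or RV2 for lowered viability, or CA1 or CA2 for caspase activation; those lethal without drug were dropped; hits were retested singly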.
Shown is a random part of about 18,000 deposited reagents. In the full data, 450 (2.5%) got an active call. 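Single biological run; no consistent viability z cut-off exists, so the class columns, not z-scores, define the calls.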

| gene symbol | viability hit class | caspase hit class | viability robust z-score | caspase robust z-score | Call |
| --- | --- | --- | --- | --- | --- |
| MEGF10 | no change | no change | 0.65 | -0.29 | inactive |
| RC3H2 | no change | no change | -0.34 | 0.66 | inactive |
| TM4SF1 | no change | no change | -0.58 | -0.09 | inactive |
| TSR3 | no change | no change | -0.08 | 1.82 | inactive |
| NTN1 | RV2 (reduced viability) | no change | -4.04 | 0.95 | active |
| PLPP3 | no change | no change | -0.39 | -1.23 | inactive |
| B4GALT5 | no change | no change | -0.44 | 0.12 | inactive |
| MGAT2 | no change | no change | 0.3 | -0.36 | inactive |
| ZNF576 | no change | no change | -0.2 | 1.35 | inactive |
| ZNF408 | no change | no change | 0.74 | 2.22 | inactive |
| TMED4 | no change | no change | -3.12 | 3.58 | inactive |
| TTC6 | no change | no change | 0.46 | 0.06 | inactive |
| ZNF337 | no change | no change | -0.39 | -0.26 | inactive |
| NR1H4 | no change | no change | 0.25 | 1.98 | inactive |
| CIRBP-AS1 | no change | no change | 0.55 | 0.75 | inactive |
| ZNF154 | no change | no change | -1.48 | 0.44 | inactive |
| PAPOLA | no change | no change | 1.22 | 1.72 | inactive |
| TAAR6 | no change | no change | -1.02 | 1.04 | inactive |
| ACTR5 | no change | no change | 0.6 | -0.81 | inactive |
| CT47A3 | no change | no change | -0.52 | 2.88 | inactive |
| CHSY3 | no change | no change | 0.85 | 0.18 | inactive |
| ANAPC2 | no change | no change | -0.06 | 0.2 | inactive |
| ZFHX2 | no change | no change | 0.36 | -0.74 | inactive |
| NOSIP | no change | no change | 0.69 | -0.98 | inactive |
| UBR3 | no change | no change | -1.85 | 1.5 | inactive |
| TMEM42 | no change | no change | -0.27 | 0.26 | inactive |
| TRIM24 | no change | CA2 (caspase activation) | -0.8 | 8.76 | active |
| KCNH3 | no change | no change | -0.73 | 1.38 | inactive |
| MSI2 | no change | no change | 0.64 | -0.54 | inactive |
| NR1D1 | no change | no change | 0.15 | -0.66 | inactive |
| NFATC3 | no change | no change | 1.49 | -0.64 | inactive |
| ZNF749 | no change | no change | 0.65 | 1.51 | inactive |
| ZNF670 | no change | no change | -1.09 | 2.05 | inactive |
| NUAK2 | no change | no change | 0.71 | -0.36 | inactive |
| VPS53 | no change | no change | 0.25 | -0.55 | inactive |
| CNTRL | no change | no change | 0.5 | -0.79 | inactive |
| BPY2B | no change | no change | 1.32 | 3.88 | inactive |
| MICU1 | no change | CA2 (caspase activation) | -2.64 | 6.25 | active |
| MRPL44 | no change | no change | 0.48 | -1.29 | inactive |
| CCDC27 | no change | no change | 0.02 | -1.01 | inactive |
| PMS2 | no change | CA1 (caspase activation) | -0.3 | 5.17 | active |
| RPS14 | no change | no change | -4.75 | -1.36 | inactive |
| C1orf210 | no change | CA2 (caspase activation) | -2.34 | 6.74 | active |
| DSCR9 | no change | no change | -2.49 | -1.34 | inactive |
| MTREX | no change | no change | -1.38 | -1.23 | inactive |
| SPATA32 | no change | no change | -0.75 | 1.68 | inactive |
| EPHA6 | no change | no change | -2.68 | -1 | inactive |
| NELL1 | no change | no change | 0.68 | -0.76 | inactive |
| AGTRAP | no change | no change | 0.48 | -0.4 | inactive |
| SCT | no change | no change | -2.16 | 1.35 | inactive |
| RXRA | no change | no change | 0.45 | 2.21 | inactive |
| LMNB2 | no change | no change | 1.42 | -0.06 | inactive |
| SIMC1 | no change | no change | 1.07 | -0.52 | inactive |
| CALB2 | no change | no change | 0.47 | 1.12 | inactive |
| LTB4R | no change | no change | -1.08 | 3.62 | inactive |
| SLC6A20 | no change | no change | 0.22 | -0.9 | inactive |
| ACOT2 | no change | no change | -0.32 | 2.21 | inactive |
| ABCA13 | no change | no change | 0.2 | -0.44 | inactive |
| PDPR | no change | no change | -0.39 | -0.37 | inactive |
| DEFB107B | no change | no change | 0.2 | 0.27 | inactive |
| CPSF7 | no change | no change | -0.49 | -0.58 | inactive |
| PSME4 | no change | no change | 0.61 | 0.8 | inactive |
| YME1L1 | no change | no change | -2.17 | -0.66 | inactive |
| RABGAP1 | no change | no change | -0.63 | -1.07 | inactive |
| RHCE | no change | no change | -0.39 | 0.54 | inactive |
| CRYGD | no change | no change | 1.52 | -0.36 | inactive |
| IGSF22 | no change | no change | 0.76 | 1.91 | inactive |
| RNPEPL1 | no change | no change | 0.48 | 0.68 | inactive |
| SPINK5 | no change | no change | 0.9 | 0.06 | inactive |
| TBC1D10A | no change | no change | 0.14 | -0.84 | inactive |
| ZC3H7B | no change | no change | -0.91 | 2.42 | inactive |
| HYKK | no change | CA2 (caspase activation) | -0.73 | 5.59 | active |
| NPTX2 | no change | no change | 0.89 | -0.42 | inactive |

Reprinted from above for reference:
| gene symbol | viability hit class | caspase hit class | viability robust z-score | caspase robust z-score | Call |
| --- | --- | --- | --- | --- | --- |
| LTB4R | no change | no change | -1.08 | 3.62 | inactive |
| SLC6A20 | no change | no change | 0.22 | -0.9 | inactive |
| ACOT2 | no change | no change | -0.32 | 2.21 | inactive |
| ABCA13 | no change | no change | 0.2 | -0.44 | inactive |
| PDPR | no change | no change | -0.39 | -0.37 | inactive |
| DEFB107B | no change | no change | 0.2 | 0.27 | inactive |
| CPSF7 | no change | no change | -0.49 | -0.58 | inactive |
| PSME4 | no change | no change | 0.61 | 0.8 | inactive |
| YME1L1 | no change | no change | -2.17 | -0.66 | inactive |
| RABGAP1 | no change | no change | -0.63 | -1.07 | inactive |
| RHCE | no change | no change | -0.39 | 0.54 | inactive |
